This note sets out measurements from paper doi:10.1101/2025.02.03.636288.

Chains of the proteins cited; added tags and fusions are not shown.
UniProt P68400: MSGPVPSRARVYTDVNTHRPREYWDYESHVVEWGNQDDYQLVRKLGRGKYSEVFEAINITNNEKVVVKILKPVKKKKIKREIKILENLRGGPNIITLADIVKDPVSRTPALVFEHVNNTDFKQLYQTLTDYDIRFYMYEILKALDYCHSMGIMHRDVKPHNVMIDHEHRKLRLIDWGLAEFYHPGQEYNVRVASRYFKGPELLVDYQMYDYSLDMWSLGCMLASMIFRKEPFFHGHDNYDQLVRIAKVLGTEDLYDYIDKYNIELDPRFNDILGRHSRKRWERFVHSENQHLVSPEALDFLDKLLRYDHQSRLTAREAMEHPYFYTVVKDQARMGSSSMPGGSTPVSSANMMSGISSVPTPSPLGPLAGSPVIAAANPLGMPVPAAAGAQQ

Assay [1] has as its target 3xFLAG-CK2α (UniProt P68400). The assay can be described thus: co-IP.
Assay [2] addresses CSNK2α1-NanoLuc (UniProt P68400). The assay can be described thus: FRET or BRET.
The target of assay [3] is FLAG-CARD9 T231D (human) (UniProt Q9H257). The assay can be described thus: SDS-PAGE Western blot of oligomeric species. A general note: A western blot detects proteins with antibodies after separation by electrophoresis.
Assay [4] has the same target. The assay can be described thus: native gel or EMSA. In general terms: Mobility shift assays separate free from complexed probe on a gel.
Assay [5] concerns the target FLAG-CARD9 T231E (human) (UniProt Q9H257). The assay can be described thus: SDS-PAGE Western blot of oligomeric species.

These are yes or no findings as the source states them, for the method shown. For part of these data: Binding seen in cells or lysates may run through a third protein. Some entries that bind do so weakly or less than the wild type. Sequences can lack the tags named with a protein.

B1: FLAG-CARD9 (protein, UniProt Q9H257 1-536)
chain: MSDYENDDECWSVLEGFRVTLTSVIDPSRITPYLRQCKVLNPDDEEQVLSDPNLVIRKRKVGVLLDILQRTGHKGYVAFLESLELYYPQLYKKVTGKEPARVFSMIIDASGESGLTQLLMTEVMKLQKKVQDLTALLSSKDDFIKELRVKDSLLRKHQERVQRLKEECEAGSRELKRCKEENYDLAMRLAHQSEEKGAALMRNRDLQLEIDQLKHSLMKAEDDCKVERKHTLKLRHAMEQRPSQELLWELQQEKALLQARVQELEASVQEGKLDRSSPYIQVLEEDWRQALRDHQEQANTIFSLRKDLRQGEARRLRCMEEKEMFELQCLALRKDSKMYKDRIEAILLQMEEVAIERDQAIATREELHAQHARGLQEKDALRKQVRELGEKADELQLQVFQCEAQLLAVEGRLRRQQLETLVLSSDLEDGSPRRSQELSLPQDLEDTQLSDKGCLAGGGSPKQPFAALHQEQVLRNPHDAGLSSGEPPEKERRRLKESFENYRRKRALRKMQKGWRQGEEDRENTTGSDNTDTEGS
With B1, in assay [1], the binding result is “binds”.

B2: HaloTag-CARD9_T231D (protein, UniProt Q9H257 1-536)
chain: MSDYENDDECWSVLEGFRVTLTSVIDPSRITPYLRQCKVLNPDDEEQVLSDPNLVIRKRKVGVLLDILQRTGHKGYVAFLESLELYYPQLYKKVTGKEPARVFSMIIDASGESGLTQLLMTEVMKLQKKVQDLTALLSSKDDFIKELRVKDSLLRKHQERVQRLKEECEAGSRELKRCKEENYDLAMRLAHQSEEKGAALMRNRDLQLEIDQLKHSLMKAEDDCKVERKHDLKLRHAMEQRPSQELLWELQQEKALLQARVQELEASVQEGKLDRSSPYIQVLEEDWRQALRDHQEQANTIFSLRKDLRQGEARRLRCMEEKEMFELQCLALRKDSKMYKDRIEAILLQMEEVAIERDQAIATREELHAQHARGLQEKDALRKQVRELGEKADELQLQVFQCEAQLLAVEGRLRRQQLETLVLSSDLEDGSPRRSQELSLPQDLEDTQLSDKGCLAGGGSPKQPFAALHQEQVLRNPHDAGLSSGEPPEKERRRLKESFENYRRKRALRKMQKGWRQGEEDRENTTGSDNTDTEGS
modifications: HaloTag NanoBRET 618 Ligand on the HaloTag
Consider B2, for which the binding entry in assay [2] is given as “binds”.

B3: FLAG-CARD9 T231D (protein, UniProt Q9H257 1-536)
chain: MSDYENDDECWSVLEGFRVTLTSVIDPSRITPYLRQCKVLNPDDEEQVLSDPNLVIRKRKVGVLLDILQRTGHKGYVAFLESLELYYPQLYKKVTGKEPARVFSMIIDASGESGLTQLLMTEVMKLQKKVQDLTALLSSKDDFIKELRVKDSLLRKHQERVQRLKEECEAGSRELKRCKEENYDLAMRLAHQSEEKGAALMRNRDLQLEIDQLKHSLMKAEDDCKVERKHDLKLRHAMEQRPSQELLWELQQEKALLQARVQELEASVQEGKLDRSSPYIQVLEEDWRQALRDHQEQANTIFSLRKDLRQGEARRLRCMEEKEMFELQCLALRKDSKMYKDRIEAILLQMEEVAIERDQAIATREELHAQHARGLQEKDALRKQVRELGEKADELQLQVFQCEAQLLAVEGRLRRQQLETLVLSSDLEDGSPRRSQELSLPQDLEDTQLSDKGCLAGGGSPKQPFAALHQEQVLRNPHDAGLSSGEPPEKERRRLKESFENYRRKRALRKMQKGWRQGEEDRENTTGSDNTDTEGS
For the molecule B3, the binding result in assay [3] and in assay [4] was “binds” throughout.

B4: HaloTag-CARD9 (protein, UniProt Q9H257 1-536)
chain: MSDYENDDECWSVLEGFRVTLTSVIDPSRITPYLRQCKVLNPDDEEQVLSDPNLVIRKRKVGVLLDILQRTGHKGYVAFLESLELYYPQLYKKVTGKEPARVFSMIIDASGESGLTQLLMTEVMKLQKKVQDLTALLSSKDDFIKELRVKDSLLRKHQERVQRLKEECEAGSRELKRCKEENYDLAMRLAHQSEEKGAALMRNRDLQLEIDQLKHSLMKAEDDCKVERKHTLKLRHAMEQRPSQELLWELQQEKALLQARVQELEASVQEGKLDRSSPYIQVLEEDWRQALRDHQEQANTIFSLRKDLRQGEARRLRCMEEKEMFELQCLALRKDSKMYKDRIEAILLQMEEVAIERDQAIATREELHAQHARGLQEKDALRKQVRELGEKADELQLQVFQCEAQLLAVEGRLRRQQLETLVLSSDLEDGSPRRSQELSLPQDLEDTQLSDKGCLAGGGSPKQPFAALHQEQVLRNPHDAGLSSGEPPEKERRRLKESFENYRRKRALRKMQKGWRQGEEDRENTTGSDNTDTEGS
modifications: HaloTag NanoBRET 618 Ligand on the HaloTag
As to B4, the binding entry in assay [2] was “binds”.

B5: FLAG-CARD9 T231E (protein, UniProt Q9H257 1-536)
chain: MSDYENDDECWSVLEGFRVTLTSVIDPSRITPYLRQCKVLNPDDEEQVLSDPNLVIRKRKVGVLLDILQRTGHKGYVAFLESLELYYPQLYKKVTGKEPARVFSMIIDASGESGLTQLLMTEVMKLQKKVQDLTALLSSKDDFIKELRVKDSLLRKHQERVQRLKEECEAGSRELKRCKEENYDLAMRLAHQSEEKGAALMRNRDLQLEIDQLKHSLMKAEDDCKVERKHELKLRHAMEQRPSQELLWELQQEKALLQARVQELEASVQEGKLDRSSPYIQVLEEDWRQALRDHQEQANTIFSLRKDLRQGEARRLRCMEEKEMFELQCLALRKDSKMYKDRIEAILLQMEEVAIERDQAIATREELHAQHARGLQEKDALRKQVRELGEKADELQLQVFQCEAQLLAVEGRLRRQQLETLVLSSDLEDGSPRRSQELSLPQDLEDTQLSDKGCLAGGGSPKQPFAALHQEQVLRNPHDAGLSSGEPPEKERRRLKESFENYRRKRALRKMQKGWRQGEEDRENTTGSDNTDTEGS
Regarding B5, the binding entry in assay [5] is reported as “binds”.
